# The list is a part of this screen's results and no random one: it is rich in T/C values a quarter to a half above the control, in often repeated tests (any T/C) and in doses without a T/C. Further doses and runs are listed elsewhere. T/C gives the treated animals as a percentage of the vehicle group. Some entries give survivors of the animals treated and no T/C: the source files T/C as zero there, which appears to mark a toxic dose or a test without result, not a measured value. Some survivor counts are full or nearly so, which does not show that the dose was tolerated: the source hardly ever lists a survival T/C far under the control, and the zero likely stands for such cases as well. Survivors were counted at the toxicity check, usually on the fifth day, unless a day is given; later deaths do not show. Schedules are NCI's codes, taken here to give the interval after Q, in days (D) or hours (H), and the number of doses after X. Some doses were run more than once; the results are listed from low to high. Where survival is the endpoint, this PubChem deposit counts one and a half times the control or more as active, and values a quarter to a half above the control carry no call in these data; other NCI protocols may use other cut-offs. Some T/C values carry the count of animals alive at the toxicity check (mostly the fifth day); without a count, all were alive then.
# System: P388 leukemia ip, CD2F1 mice, survival T/C
# Test: NCI In Vivo Anticancer Drug Screen. Data for tumor model P388 Leukemia (intraperitoneal) in CD2F1 (CDF1) mice
# Settings: T/C endpoint: median survival time, higher T/C = longer survival
# [1] = dose: 60.0 mg/kg/injection, schedule: Q01DX005 (ip), vehicle: saline with Tween-80
# [2] = dose: 120.0 mg/kg/injection, schedule: Q01DX005 (ip), vehicle: saline with Tween-80
# [3] = dose: 240.0 mg/kg/injection, schedule: Q01DX005 (ip), vehicle: saline with Tween-80
# [4] = dose: 100.0 mg/kg/injection, schedule: Q04DX003 (ip), vehicle: saline with Tween-80
# [5] = dose: 100.0 mg/kg/injection, schedule: Q01DX009 (ip), vehicle: saline
# [6] = dose: 200.0 mg/kg/injection, schedule: Q01DX009 (ip), vehicle: saline
# [7] = dose: 400.0 mg/kg/injection, schedule: Q01DX009 (ip), vehicle: saline
# [8] = dose: 200.0 mg/kg/injection, schedule: Q01DX005 (ip), vehicle: saline with Tween-80
# [9] = dose: 100.0 mg/kg/injection, schedule: Q04DX003 (ip), vehicle: saline
# [10] = dose: 200.0 mg/kg/injection, schedule: Q04DX003 (ip), vehicle: saline
# [11] = dose: 200.0 mg/kg/injection, schedule: Q01DX005 (ip), vehicle: saline
compound,measurement,setting,value
CN(C)c1ccc(C(c2c(O)c3ccccc3oc2=O)c2c(O)c3ccccc3oc2=O)cc1,survivor count,"dose: 30.0 mg/kg/injection, schedule: Q01DX005 (ip), vehicle: saline with Tween-80",6 of 6
same,survivor count,[1],5 of 6 and 6 of 6
same,survivor count,[2],2 of 5
same,survivor count,[3],2 of 6
CCC(c1ccc2cc(OC)ccc2c1)C(C)(C)C(=O)F (stereo not drawn),T/C,"dose: 25.0 mg/kg/injection, schedule: Q01DX009 (ip), vehicle: saline with Tween-80",127 % of control
same,T/C,"dose: 50.0 mg/kg/injection, schedule: Q01DX009 (ip), vehicle: saline with Tween-80",127 % of control
same,survivor count,"dose: 100.0 mg/kg/injection, schedule: Q01DX009 (ip), vehicle: saline with Tween-80",1 of 6
same,survivor count,[4],4 of 6
same,survivor count,"dose: 200.0 mg/kg/injection, schedule: Q04DX003 (ip), vehicle: saline with Tween-80",4 of 6
same,survivor count,"dose: 400.0 mg/kg/injection, schedule: Q04DX003 (ip), vehicle: saline with Tween-80",0 of 6
Cn1c(=S)[nH]c2scc(-c3ccccc3)c2c1=O,survivor count,[2],6 of 6
CCCCCCCCCCCC[N+]1(CC)CCCCCC1,survivor count,"dose: 3.12 mg/kg/injection, schedule: Q01DX009 (ip), vehicle: saline",5 of 6
same,survivor count,"dose: 6.25 mg/kg/injection, schedule: Q01DX009 (ip), vehicle: saline",2 of 6
same,survivor count,"dose: 12.5 mg/kg/injection, schedule: Q01DX009 (ip), vehicle: saline",0 of 6
same,survivor count,"dose: 50.0 mg/kg/injection, schedule: Q01DX009 (ip), vehicle: saline",0 of 6
same,survivor count,[5],0 of 6
same,survivor count,[6],0 of 6
COc1ccc(OC)c2c1nc(CBr)n2C,survivor count,"dose: 65.0 mg/kg/injection, schedule: Q01DX005 (ip), vehicle: DMSO",1 of 6
same,survivor count,"dose: 130.0 mg/kg/injection, schedule: Q01DX005 (ip), vehicle: DMSO",0 of 6
NCc1cc(O)c(O)c(O)c1,T/C,[6],133 % of control
same,T/C,[7],129 % of control
same,survivor count,"dose: 600.0 mg/kg/injection, schedule: Q01DX009 (ip), vehicle: saline",6 of 6
O=c1ccc2[n+]([O-])c3ccc(O)cc3oc-2c1,survivor count,[8],4 of 5
CCOc1cc(/C=N\Nc2nnc(C)n2N)c(C)cc1N(CCCl)CCCl,T/C,"dose: 0.5 mg/kg/injection, schedule: Q01DX009 (ip), vehicle: saline with Tween-80",130 % of control
same,T/C,"dose: 1.0 mg/kg/injection, schedule: Q01DX009 (ip), vehicle: saline with Tween-80",135 % of control
same,T/C,"dose: 10.0 mg/kg/injection, schedule: Q04DX003 (ip), vehicle: saline",130 % of control
COc1cccc2c1[C@H]1CO[C@H]3C4C[C@H](C(=O)O)C([C@@H](C2)N13)N4C (stereo partly drawn),T/C,"dose: 1.25 mg/kg/injection, schedule: Q01DX005 (ip), vehicle: water",125 % of control
same,T/C,"dose: 2.5 mg/kg/injection, schedule: Q01DX005 (ip), vehicle: water","129, 140, 143 % of control"
same,T/C,"dose: 5.0 mg/kg/injection, schedule: Q01DX005 (ip), vehicle: water","145, 146, 149, 179 % of control"
same,survivor count,"dose: 20.0 mg/kg/injection, schedule: Q01DX005 (ip), vehicle: water",5 of 6
same,survivor count,"dose: 40.0 mg/kg/injection, schedule: Q01DX005 (ip), vehicle: water",0 of 6 and 4 of 6
O=S(=O)(CCCl)c1ccc2ccccc2c1,survivor count,"dose: 25.0 mg/kg/injection, schedule: Q01DX009 (ip), vehicle: Klucel (hydroxypropylcellulose) (HPC)",6 of 6
same,survivor count,"dose: 100.0 mg/kg/injection, schedule: Q01DX009 (ip), vehicle: Klucel (hydroxypropylcellulose) (HPC)",3 of 6
CC(C)NC(=O)c1ccccc1Sc1ccccc1CN(C)C(C)C,survivor count,"dose: 200.0 mg/kg/injection, schedule: Q01DX001 (ip), vehicle: saline with Tween-80",0 of 6
same,survivor count,"dose: 400.0 mg/kg/injection, schedule: Q01DX001 (ip), vehicle: saline with Tween-80",0 of 6
COc1cc2c(cc1OC(C)=O)C(=O)CCC=C2,T/C,[9],125 % of control
same,T/C,[10],125 % of control
O=c1[nH]cc(Cn2cccc3c(=O)ncnc2-3)c(=O)[nH]1,survivor count,"dose: 400.0 mg/kg/injection, schedule: Q01DX001 (ip), vehicle: suspension in saline",3 of 6
C/C(=N/NC(N)=O)c1ccc2c3c(cc(Br)c2c1)CCCC3,survivor count,"dose: 100.0 mg/kg/injection, schedule: Q01DX005 (ip), vehicle: saline with Tween-80",6 of 6
same,survivor count,[8],5 of 6
O=C(O)c1c(Cl)n(Cc2ccc(Cl)cc2Cl)c2ccccc12,survivor count,"dose: 60.0 mg/kg/injection, schedule: Q01DX005 (ip), vehicle: Klucel (hydroxypropylcellulose) (HPC)",6 of 6
CCCCCCCCCCCCNCC(=O)O,survivor count,[5],0 of 6 and 1 of 6
same,survivor count,[6],0 of 6
same,survivor count,[7],0 of 6
O=C(Nc1ccc(NC2=NCCN2)cc1)c1cccc(C(=O)Nc2ccc(NC3=NCCN3)cc2)c1,T/C,"dose: 10.0 mg/kg/injection, schedule: Q01DX009 (ip), vehicle: saline with Tween-80",127 % of control
same,T/C,"dose: 13.2 mg/kg/injection, schedule: Q01DX009 (ip), vehicle: saline with Tween-80",127 % of control [5 of 6 alive]
same,T/C,"dose: 20.0 mg/kg/injection, schedule: Q01DX009 (ip), vehicle: saline with Tween-80",136 and 140 % of control
Oc1ccccc1-c1cc(-c2ccccc2)nc(NCCCCCCNc2nc(-c3ccccc3)cc(-c3ccccc3O)n2)n1,survivor count,"dose: 200.0 mg/kg/injection, schedule: Q01DX005 (ip), vehicle: Klucel (hydroxypropylcellulose) (HPC)",3 of 6
Cc1c2oc3c(C)ccc(C(=O)NCCN4CCCCC4)c3nc-2c(C(=O)NCCN2CCCCC2)c(N)c1=O,survivor count,"dose: 200.0 mg/kg/injection, schedule: Q01DX009 (ip), vehicle: Klucel (hydroxypropylcellulose) (HPC)",2 of 6
O=C1C(Cl)=C(NCC2CCCN3CCCCC23)C(=O)c2ccccc21 (stereo not drawn),survivor count,[11],0 of 6
CCOC(=O)/C=C(\NC1CC(OC2C[C@](O)(C(C)=O)Cc3c(O)c4c(c(O)c32)C(=O)c2c(OC)cccc2C4=O)OC(C)C1O)C(=O)OCC (stereo partly drawn),T/C,"dose: 25.0 mg/kg/injection, schedule: Q04DX003 (ip), vehicle: saline with Tween-80",132 % of control
same,T/C,"dose: 50.0 mg/kg/injection, schedule: Q04DX003 (ip), vehicle: saline with Tween-80",148 % of control
same,T/C,[4],133 % of control
CCCCCCCC[N+](C)(C)Cc1ccc(Oc2ccc(C[N+](C)(C)CCCCCCCC)cc2)cc1,survivor count,"dose: 25.0 mg/kg/injection, schedule: Q04DX003 (ip), vehicle: saline",5 of 6
same,survivor count,"dose: 50.0 mg/kg/injection, schedule: Q04DX003 (ip), vehicle: saline",0 of 6
same,survivor count,[9],0 of 6
same,survivor count,[10],1 of 6
same,survivor count,"dose: 400.0 mg/kg/injection, schedule: Q04DX003 (ip), vehicle: saline",0 of 6
NC(N)=N/N=C/c1ccc(-c2cc3ccc(/C=N/N=C(N)N)cc3s2)cc1,T/C,"dose: 50.0 mg/kg/injection, schedule: Q01DX005 (ip), vehicle: Klucel (hydroxypropylcellulose) (HPC)",127 % of control
same,T/C,"dose: 100.0 mg/kg/injection, schedule: Q01DX005 (ip), vehicle: Klucel (hydroxypropylcellulose) (HPC)",127 % of control
CCOC(=O)/C=C1/C(=O)OC2C1OC1OC(C)(C)OC12 (stereo not drawn),survivor count,"dose: 15.0 mg/kg/injection, schedule: Q01DX005 (ip), vehicle: saline with Tween-80",1 of 6
same,survivor count,[1],0 of 6
same,survivor count,[2],0 of 6
same,survivor count,[3],0 of 6
CCN(CC)CCCC(C)n1c2nc(=O)[nH]c(=O)c-2nc2cc(Cl)ccc21 (stereo not drawn),survivor count,"dose: 100.0 mg/kg/injection, schedule: Q01DX005 (ip), vehicle: saline",0 of 6
same,survivor count,[11],0 of 6
CC1COC2(CC1OC(=O)/C=C/c1ccccc1)OC1CC(C(=O)OC3OC(C)C(O)C(O)C3OC3OC(C)C(O)C(O)C3O)CCC1C21CO1 (stereo not drawn),T/C,"dose: 15.0 mg/kg/injection, schedule: Q01DX005 (ip), vehicle: saline + alcohol",134 % of control
same,T/C,"dose: 30.0 mg/kg/injection, schedule: Q01DX005 (ip), vehicle: saline + alcohol",140 and 147 % of control
